Data published in publication PMC7819943, “Rice protein-binding microarrays: a tool to detect cis-acting elements near promoter regions in rice”.
This is one part of the list.

Each sequence was assayed against T1, OsSMF1 (Oryza sativa, UniProt Q6ZLB0 1-436) (assay: protein-binding microarray (RPBM); PBS, 2% BSA, 51.3 ng/ul salmon testes DNA, 50 uM zinc acetate, 200 nM TF, 25 C, 1 h; high values mean tight binding). Settings: protein: recombinant; tags: N-terminal polyhistidine and DsRed monomer fusion (pET32a); chain copies: 2; label: CyDye5-dUTP incorporated in the synthesized complementary strand; 3' TTTTT single-stranded linker to array surface; dsDNA, one strand shown.
T1 sequence: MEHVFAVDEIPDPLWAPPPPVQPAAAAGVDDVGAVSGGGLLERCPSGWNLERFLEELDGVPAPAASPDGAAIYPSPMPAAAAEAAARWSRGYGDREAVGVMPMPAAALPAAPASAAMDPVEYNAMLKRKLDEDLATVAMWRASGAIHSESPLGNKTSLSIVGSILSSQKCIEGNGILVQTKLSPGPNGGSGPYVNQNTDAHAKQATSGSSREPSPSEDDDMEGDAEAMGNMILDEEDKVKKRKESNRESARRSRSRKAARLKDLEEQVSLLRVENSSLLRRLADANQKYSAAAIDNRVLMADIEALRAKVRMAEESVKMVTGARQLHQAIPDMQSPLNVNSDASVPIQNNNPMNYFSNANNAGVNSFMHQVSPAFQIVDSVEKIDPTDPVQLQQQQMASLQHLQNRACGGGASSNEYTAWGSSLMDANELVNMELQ
In short: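 The binding signal is fluorescence intensity per array feature (arbitrary units). Readings came from an Axon 4000B scanner after a washed, 2% BSA-blocked, double-stranded custom Agilent array had been incubated for 1 h at 25 °C with 200 nM protein and 50 µM zinc acetate. The protein was a Ni–NTA-purified transcription factor fused N-terminally to polyhistidine and DsRed, expressed in E. coli BL21-CodonPlus.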

Question: Which binding signal does the source give for “AAGACGACGACGACGGTGTCTGCTGCGTCGGCTGCTCCGGCGGAGTCACCTAGTGCAG” here?
Answer: 18400 fluorescence intensity (a.u.)

Question: How did the binding signal turn out when “AAAGAGCGCACGCCCCACTCGACACGTTGCCCCACCTCAACGGAGTCACCTAGTGCAG” was run?
Answer: 5280 fluorescence intensity (a.u.)

Question: “ACAGCATCCAATTCAAACGGATCAAGACTTAAATAATCCCCGGAGTCACCTAGTGCAG” was tested. Which binding signal did it give?
Answer: 3280 fluorescence intensity (a.u.)

Question: For “ATCCATCCACCCAACCAGCCACGCCTTGCAAACGGCCAAACGGAGTCACCTAGTGCAG”, which binding signal is on record?
Answer: 3360 fluorescence intensity (a.u.)

Question: With “AAGCAGGCTAGATCCCATCTCATGCGTATGCATGATGCCACGGAGTCACCTAGTGCAG” as the sequence, how does the binding signal read?
Answer: 3180 fluorescence intensity (a.u.)

Question: With “GCACCAGCCAGTCAGCCCACCATTTCAAACGCCACACTCACGGAGTCACCTAGTGCAG” as the sequence, how does the binding signal read?
Answer: 60800 fluorescence intensity (a.u.)

Question: With “TAGGGATAATGTGCCTTCGTGTTAAGTAGCCAGGCACGTACGGAGTCACCTAGTGCAG” as the sequence, how does the binding signal read?
Answer: 3220 fluorescence intensity (a.u.)

Question: Which binding signal does the source give for “AGATTCGTTGTATTAAAATGTGTCACATTCAATCTATTAGCGGAGTCACCTAGTGCAG” here?
Answer: 3920 fluorescence intensity (a.u.)

Question: “AGCCCGCTCTCACGTGGTCAGCACGTGTGCCACCTCAGCACGGAGTCACCTAGTGCAG” was tested. Which binding signal did it give?
Answer: 10000 fluorescence intensity (a.u.)

Question: “TCCTGCGCTATTAATGCCACCATCACACTCTGACACTCATCGGAGTCACCTAGTGCAG” was tested. Which binding signal did it give?
Answer: 3280 fluorescence intensity (a.u.)

Question: “GGGACAATATTGGGTACGTGGAGCACGTACCTCCATCCTACGGAGTCACCTAGTGCAG” was tested. Which binding signal did it give?
Answer: 3890 fluorescence intensity (a.u.)

Question: How did the binding signal turn out when “TTCGTTTTAAAACTATAAGATGGAACTTAATTTGAAAACACGGAGTCACCTAGTGCAG” was run?
Answer: 10300 fluorescence intensity (a.u.)

Question: For “CAAAGGCGGCAGCTCGTGCGTGTCACGCGAGGGCATCACACGGAGTCACCTAGTGCAG”, which binding signal is on record?
Answer: 3150 fluorescence intensity (a.u.)

Question: Which binding signal does the source give for “GGGGACGCCCCTCGTCACTCATCATTTAATGAACAAGGACCGGAGTCACCTAGTGCAG” here?
Answer: 3520 fluorescence intensity (a.u.)

Question: “TGCGGCAGGCTCATGACATGGCTGATGTCGAGCCTGTCAACGGAGTCACCTAGTGCAG” was tested. Which binding signal did it give?
Answer: 3170 fluorescence intensity (a.u.)

Question: With “TCGTCGCATCGGATCACAATGGTTAATCTAATTCCTGCAACGGAGTCACCTAGTGCAG” as the sequence, how does the binding signal read?
Answer: 17500 fluorescence intensity (a.u.)

Question: With “ACGCGGCACCAACCGCGCGCCCACGCGAGCGCTCGCGCCGCGGAGTCACCTAGTGCAG” as the sequence, how does the binding signal read?
Answer: 20300 fluorescence intensity (a.u.)

Question: For “ACGCGCCGGCTCATGCATCTCTCCGGCGCGCGGCTGAGGACGGAGTCACCTAGTGCAG”, which binding signal is on record?
Answer: 4350 fluorescence intensity (a.u.)

Question: Which binding signal does the source give for “CCACTCCTCTTTCACACGTATATCAGCCCGAGCCACCCGTCGGAGTCACCTAGTGCAG” here?
Answer: 3930 fluorescence intensity (a.u.)

Question: Which binding signal does the source give for “ATTGACTTTGTTACATCATTGTAGCAATATGTCGACAGGGCGGAGTCACCTAGTGCAG” here?
Answer: 3620 fluorescence intensity (a.u.)

Question: Which binding signal does the source give for “ATGAGCACAGGGAGCTCAGATCCGATCACTAGAGTAGATGCGGAGTCACCTAGTGCAG” here?
Answer: 3430 fluorescence intensity (a.u.)

Question: For “TTTTCTCACGTGGAAACCACCGTTCGCTTCGTTAACCTCCCGGAGTCACCTAGTGCAG”, which binding signal is on record?
Answer: 4970 fluorescence intensity (a.u.)

Question: For “CACATCGAACGGTCCAAGAACAACCACATCACCAATGTGCCGGAGTCACCTAGTGCAG”, which binding signal is on record?
Answer: 3710 fluorescence intensity (a.u.)
